Paper doi:10.1101/2023.09.24.559210
Results are given in words; binding and its absence hold for the method and conditions named. Binding calls can cover weak binding; strength is not graded here. Tags and fused reporters may be left off the sequences shown.

Sequences of proteins named here, by UniProt entry; tags and fusion partners are left off. A change or cut given only in a name is not applied to a line headed by its entry.
UniProt Q15223: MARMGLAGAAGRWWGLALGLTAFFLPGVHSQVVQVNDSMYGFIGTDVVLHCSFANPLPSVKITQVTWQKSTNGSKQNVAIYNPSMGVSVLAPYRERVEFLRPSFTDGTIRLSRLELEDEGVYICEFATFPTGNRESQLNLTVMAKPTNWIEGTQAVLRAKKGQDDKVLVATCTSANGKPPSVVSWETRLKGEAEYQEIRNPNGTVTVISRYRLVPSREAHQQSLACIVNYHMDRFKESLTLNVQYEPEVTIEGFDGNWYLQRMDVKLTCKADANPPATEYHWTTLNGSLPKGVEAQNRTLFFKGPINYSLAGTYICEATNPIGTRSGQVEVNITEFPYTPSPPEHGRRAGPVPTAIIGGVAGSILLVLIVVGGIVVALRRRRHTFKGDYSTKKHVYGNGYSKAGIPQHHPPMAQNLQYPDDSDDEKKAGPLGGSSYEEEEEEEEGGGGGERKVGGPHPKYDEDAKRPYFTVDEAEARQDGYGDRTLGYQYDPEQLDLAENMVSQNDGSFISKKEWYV
UniProt Q9Y624: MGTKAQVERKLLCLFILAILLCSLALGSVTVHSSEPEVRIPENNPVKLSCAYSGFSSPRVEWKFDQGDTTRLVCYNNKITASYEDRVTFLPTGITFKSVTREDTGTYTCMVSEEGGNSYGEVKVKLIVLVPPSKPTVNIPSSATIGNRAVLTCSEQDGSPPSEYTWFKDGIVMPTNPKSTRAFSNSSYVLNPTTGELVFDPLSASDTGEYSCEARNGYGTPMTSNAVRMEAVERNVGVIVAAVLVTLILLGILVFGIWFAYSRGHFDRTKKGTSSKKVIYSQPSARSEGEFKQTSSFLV

Legend:
[1] = target: nectin-1 C-terminal domain of the tethered-ligand fusion construct (UniProt Q15223); test: single-molecule magnetic tweezers, force-jump
[2] = target: JAM-A C-terminal domain of the tethered-ligand fusion constructs (UniProt Q9Y624); test: single-molecule magnetic tweezers, force-jump

binding [1]: binds
binding [2]: binds
B1: afadin PDZ domain of the tethered-ligand fusion constructs (domain or fragment, UniProt P55196 1007-1093)
chain: IITVTLKKQNGMGLSIVAAKGAGQDKLGIYVKSVVKGGAADVDGRLAAGDQLLSVDGRSLVGLSQERAAELMTRTSSVVTLEVAKQG
